# The list shows a part of the results, in another mix than the full data. For part of these data: At the low end of the ranking the order means little. Some of the results follow. For part of these data: The exact form of the protein is not confirmed.
# Amino acid sequences for entries named in this document (tags omitted). A change or cut given only in a name is not applied to a line headed by its entry.
# UniProt P50549: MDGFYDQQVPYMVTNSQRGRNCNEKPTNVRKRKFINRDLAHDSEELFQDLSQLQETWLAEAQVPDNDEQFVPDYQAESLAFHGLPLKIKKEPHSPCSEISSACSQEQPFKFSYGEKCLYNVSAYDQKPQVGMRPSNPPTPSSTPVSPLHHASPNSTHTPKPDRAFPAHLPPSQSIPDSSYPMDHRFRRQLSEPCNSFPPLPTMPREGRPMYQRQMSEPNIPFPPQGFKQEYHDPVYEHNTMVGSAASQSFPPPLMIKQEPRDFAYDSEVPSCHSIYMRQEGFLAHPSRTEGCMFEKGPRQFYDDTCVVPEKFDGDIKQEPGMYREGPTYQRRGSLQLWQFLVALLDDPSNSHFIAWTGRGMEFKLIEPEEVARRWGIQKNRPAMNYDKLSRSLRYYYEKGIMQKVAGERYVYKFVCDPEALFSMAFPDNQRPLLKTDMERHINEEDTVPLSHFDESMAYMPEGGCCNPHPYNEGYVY
# UniProt P32519: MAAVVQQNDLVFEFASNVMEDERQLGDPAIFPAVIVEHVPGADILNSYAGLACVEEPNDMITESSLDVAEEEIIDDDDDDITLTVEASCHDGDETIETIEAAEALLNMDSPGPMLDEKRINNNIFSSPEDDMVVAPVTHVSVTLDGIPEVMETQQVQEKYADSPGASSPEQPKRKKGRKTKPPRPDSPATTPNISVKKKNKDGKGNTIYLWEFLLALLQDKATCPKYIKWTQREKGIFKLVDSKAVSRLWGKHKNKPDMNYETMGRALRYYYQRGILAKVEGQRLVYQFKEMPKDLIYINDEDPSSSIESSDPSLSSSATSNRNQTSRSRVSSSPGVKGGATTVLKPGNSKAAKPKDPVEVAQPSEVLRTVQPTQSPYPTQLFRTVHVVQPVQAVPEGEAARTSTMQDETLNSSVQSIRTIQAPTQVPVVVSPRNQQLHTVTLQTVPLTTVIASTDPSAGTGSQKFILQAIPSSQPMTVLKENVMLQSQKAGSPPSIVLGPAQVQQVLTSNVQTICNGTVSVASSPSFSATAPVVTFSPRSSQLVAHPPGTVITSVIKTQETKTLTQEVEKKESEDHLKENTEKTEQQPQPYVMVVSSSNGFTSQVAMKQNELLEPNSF
# Tests used:
# Assay in all cases: DAPPL (digital affinity profiling via proximity ligation, sequencing)
# Conditions in all cases: 10 mM Tris-HCl pH 7.5, 50 mM NaCl, 1 mM DTT, 4% glycerol, room temperature, 30 min; GST-TFs on glutathione beads, 16-mer random dsDNA library, 0.1% …; high values mean tight binding; double strand, one strand shown; scale: fold enrichment (6-mer frequency, TF over GST control)
# ERG = target: T1, ERG (UniProt P11308)
# T1 sequence: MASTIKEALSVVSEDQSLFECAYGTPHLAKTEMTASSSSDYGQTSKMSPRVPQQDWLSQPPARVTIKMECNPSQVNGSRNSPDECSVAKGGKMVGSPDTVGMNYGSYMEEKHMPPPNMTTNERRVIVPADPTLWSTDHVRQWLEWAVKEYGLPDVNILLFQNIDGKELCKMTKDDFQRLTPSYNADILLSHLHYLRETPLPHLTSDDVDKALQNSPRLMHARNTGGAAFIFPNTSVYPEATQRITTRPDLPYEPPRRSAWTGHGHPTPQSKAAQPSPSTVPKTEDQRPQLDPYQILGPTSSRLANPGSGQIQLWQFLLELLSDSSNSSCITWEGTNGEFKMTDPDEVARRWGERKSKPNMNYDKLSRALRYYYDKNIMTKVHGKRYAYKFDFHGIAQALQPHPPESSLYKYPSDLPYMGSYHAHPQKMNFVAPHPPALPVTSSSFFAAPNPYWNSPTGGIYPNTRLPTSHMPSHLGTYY
# ELK4 = target: T2, ELK4 (UniProt P28324-2)
# T2 sequence: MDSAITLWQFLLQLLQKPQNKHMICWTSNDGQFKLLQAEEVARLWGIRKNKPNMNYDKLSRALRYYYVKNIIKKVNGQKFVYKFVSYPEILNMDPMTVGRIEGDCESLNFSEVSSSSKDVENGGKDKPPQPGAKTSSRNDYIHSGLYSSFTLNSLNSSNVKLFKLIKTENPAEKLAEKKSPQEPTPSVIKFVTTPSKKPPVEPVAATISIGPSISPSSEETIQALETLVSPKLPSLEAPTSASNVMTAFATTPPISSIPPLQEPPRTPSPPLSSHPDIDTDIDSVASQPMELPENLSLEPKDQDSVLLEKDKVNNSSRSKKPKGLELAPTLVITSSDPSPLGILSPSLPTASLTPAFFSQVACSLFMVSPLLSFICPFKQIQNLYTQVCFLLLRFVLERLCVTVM
# ETV4 = target: T3, ETV4 (UniProt P43268)
# T3 sequence: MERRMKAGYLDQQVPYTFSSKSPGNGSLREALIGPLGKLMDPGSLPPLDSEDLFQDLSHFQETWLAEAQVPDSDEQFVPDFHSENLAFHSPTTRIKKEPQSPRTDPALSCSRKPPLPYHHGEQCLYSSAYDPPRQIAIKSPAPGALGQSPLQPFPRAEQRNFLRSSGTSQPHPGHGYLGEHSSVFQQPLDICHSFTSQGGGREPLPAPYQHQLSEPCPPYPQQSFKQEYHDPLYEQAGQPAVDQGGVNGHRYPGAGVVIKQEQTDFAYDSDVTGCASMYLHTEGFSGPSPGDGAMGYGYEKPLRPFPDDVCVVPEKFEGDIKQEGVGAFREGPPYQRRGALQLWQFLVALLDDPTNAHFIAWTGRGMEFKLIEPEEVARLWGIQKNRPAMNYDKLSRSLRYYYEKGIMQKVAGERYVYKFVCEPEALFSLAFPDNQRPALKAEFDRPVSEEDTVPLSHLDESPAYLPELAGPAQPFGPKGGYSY
# ETV1 = ETV1 (UniProt P50549)
# ERF = target: T4, ERF (UniProt P50548)
# T4 sequence: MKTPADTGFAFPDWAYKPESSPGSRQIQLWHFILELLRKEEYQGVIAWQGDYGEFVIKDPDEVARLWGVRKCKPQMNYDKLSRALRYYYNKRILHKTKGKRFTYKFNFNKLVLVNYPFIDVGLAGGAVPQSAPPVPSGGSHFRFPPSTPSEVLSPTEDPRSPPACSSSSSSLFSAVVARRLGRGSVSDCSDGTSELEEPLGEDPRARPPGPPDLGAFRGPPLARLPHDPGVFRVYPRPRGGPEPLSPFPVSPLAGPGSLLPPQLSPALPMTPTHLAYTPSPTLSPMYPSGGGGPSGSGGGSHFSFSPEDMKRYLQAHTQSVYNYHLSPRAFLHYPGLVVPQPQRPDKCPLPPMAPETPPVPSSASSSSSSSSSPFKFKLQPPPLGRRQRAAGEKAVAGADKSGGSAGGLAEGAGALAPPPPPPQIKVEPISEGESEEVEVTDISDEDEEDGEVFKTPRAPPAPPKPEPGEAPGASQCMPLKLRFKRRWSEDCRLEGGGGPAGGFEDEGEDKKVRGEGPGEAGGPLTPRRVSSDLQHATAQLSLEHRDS
# ELF1 = ELF1 (UniProt P32519)
Sequence,binding signal (ERG),binding signal (ELK4),binding signal (ETV4),binding signal (ETV1),binding signal (ERF),binding signal (ELF1)
CAAACG,0.983,1.05,1.04,0.976,,
TGAGCT,0.979,1.17,1.14,1.09,,
AATGTG,0.988,0.927,0.99,0.997,1.01,
AGAATA,0.98,1.02,0.986,0.948,1.03,
ACGATG,1.13,0.976,1.07,1.12,1.09,
GGTTAC,0.964,0.995,0.965,0.977,0.991,
GATTTA,0.901,1.02,0.956,0.91,,
TCGCGT,0.933,1.06,0.919,0.898,0.924,
GAATGA,0.953,0.958,0.962,0.883,0.883,
GTCCAA,0.908,0.947,0.934,0.908,0.889,
TGATTC,1.08,0.996,1.2,1.18,,
TGGTCG,0.99,0.96,0.925,0.989,0.999,
AACAAC,1.29,1.27,1.31,1.23,,
GAATCA,0.955,0.955,0.938,0.878,0.974,0.927
GACACT,0.986,1.05,1.09,0.971,0.922,
CTAGAC,0.945,0.93,0.963,0.943,0.959,
CGGTTA,0.992,0.924,0.951,0.955,0.931,
CCTGCC,1.3,1.14,1.32,1.26,,
GTTATA,0.962,0.945,1.02,0.979,,

# In a second layout: results already given.
Sequence | binding signal (ERG) | binding signal (ELK4) | binding signal (ETV4) | binding signal (ETV1) | binding signal (ERF) | binding signal (ELF1)
CAAACG | 0.983 | 1.05 | 1.04 | 0.976 |  | 
ACGATG | 1.13 | 0.976 | 1.07 | 1.12 | 1.09 | 

# (list continues)

Sequence,binding signal (ERG),binding signal (ELK4),binding signal (ETV4),binding signal (ETV1),binding signal (ERF),binding signal (ELF1)
CACAAC,1.25,1.25,1.26,1.2,1.36,
ATGTAG,1.01,1.15,1.04,0.939,1.14,
CTGTGG,0.968,0.987,0.941,0.844,0.95,0.894
TAATAC,1.09,1.04,1.13,1.11,1.14,
GGCTTT,0.994,0.992,1.05,0.934,0.956,
GCAGCA,0.94,0.887,0.904,0.928,0.985,
TTTTAG,1.19,1.1,1.18,1.19,,
ATAAAG,1.12,1.16,1.07,1.04,,
TGTCGC,0.964,0.961,0.884,0.967,,
CTGGTG,0.965,0.881,1.01,0.919,,
ACCGCT,1.1,1.18,1.04,0.999,,
CACCCA,0.998,1.04,1.02,0.99,,
GCGTTG,0.891,0.994,0.853,0.93,,
AGCACT,1.48,1.31,1.42,1.36,,
GCCACA,0.998,0.95,0.903,1.08,0.99,
ACAAAG,0.946,0.976,0.948,0.973,,
TAGAAC,0.971,0.99,1.04,1.07,,
AGAAGG,0.723,0.713,0.687,0.687,0.722,0.678
